Assay results taken from US12661409B2, “Target validation and profiling of the RNA targets of small molecules” (priority 2018, dated 2026).
Some entries share one result that the patent states for a list of compounds.

Target: DNA
Test: Microscale thermophoresis (MST) affinity for DNA
Assay type: binding

How did the Kd turn out when Targaprimir-96 [Compound 1] was run?
The Kd was > 30 µM.
